Laboratory results from PubChem BioAssay AID493014 (National Center for Advancing Translational Sciences (NCATS), 2011).
Among all 340,000 compounds or so, about 170 (0.05%) were called active. The inconclusive results got no clear call from the source; some entries with a clear call stand among them for comparison. The call rests on the fitted dose curve; in most records, active means well fitted inhibition curve with a large enough effect in the signal ratio, with a control signal flat (not every such curve was filed as active); inconclusive means small, poorly fitted or top-dose-only effect, or effect the other way, or a change in a side signal; inactive means flat fitted curve, though single readings scatter; the % refers to the signal ratio. Where the call is inconclusive, the potency comes from a doubtful curve fit.

Assay: qHTS Assay to Find Inhibitors of Chronic Active B-Cell Receptor Signaling;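 on activity change, negative = inhibition: plate controls were basal doxycycline-induced cells for no effect and cells given 10 µM MG132 for full effect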
Conditions: ABC-DLBCL IkBa-CBG/CBR reporter, luminescence ratio (green luciferase fused to IkBa over red control in TMD8 lymphoma cells), 4 h; activity change, negative = inhibition: at 46.1 µM (top of the series)
Outline: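 Cell line TMD8 (human ABC DLBCL), stably expressing tet-inducible CBG68-IkBa fusion and CBR; IMDM/0.5% FBS; cpd up to 46 uM; dox induction, 4 h, 37C/5% CO2; dual luminescence; green/red ratio; MG132 control.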
Potency means the concentration at half of the fitted maximal effect.

SMILES | Potency | activity change, negative = inhibition
Cc1ccc(-c2cc(C(=O)N3CCN(C(=O)c4ccco4)CC3)no2)cc1 | inconclusive: 20.6 µM [falling, partial curve, poor fit] | –
CN(C)CCCN1C(=O)c2cccc3c(Br)ccc(c23)C1=O | inconclusive: 11.2 µM [rising, partial curve] | –
CC(C)(C)C(=O)NC(=S)Nc1sc2c(c1C(N)=O)CCC2 | inconclusive: 5.01 µM [rising, full curve, poor fit] | –
O=C(O)Cc1csc(-c2cccc(F)c2)n1 | inconclusive: 3.98 µM [rising, partial curve, poor fit] | –
Cc1cccc(C)c1NC(=O)/C(=C/c1ccco1)c1ccccc1 | – | inconclusive: 7.8%
CCN(CC)c1ccc(/C=C2\NC(=O)NC2=O)cc1 | – | inconclusive: -1.89%
CC1/C(=N/O)C(CN(C)C)C2CC1C2(C)C (stereo not drawn) | – | inactive: 6.27%
CCOc1ccc(NC(=O)CSC2=Nc3ccccc3C3=NC(CC(=O)NCc4ccco4)C(=O)N23)cc1 (stereo not drawn) | – | inconclusive: 29%
CCOc1ccccc1NC(=O)C(c1ccccc1)N1CCN(C(=O)c2ccco2)CC1 (stereo not drawn) | – | inactive: -6.16%
CCC1CCC(NC(=O)Nc2cccc(OC)c2)CC1 (stereo not drawn) | inconclusive: 6.31 µM [falling, full curve] | –
S=c1[nH]nc(-c2cc3c(s2)-c2ccccc2CC3)o1 | inconclusive: 18.4 µM [falling, single point] | –
O=C(/C=C/c1ccccc1Cl)NC(=S)Nc1ccccc1C(=O)NC1CCCCC1 | – | inconclusive: -0.335%
O=C(c1ccco1)N1N=C(C2CCCCC2)CC1(O)C(F)(F)F (stereo not drawn) | – | inactive: 3.99%
Cc1cccc(-n2c(C)cc(C)c(C#N)c2=O)c1 | – | inconclusive: 6.94%
COc1ccc(-c2sc3ccccc3c2/C=C/c2ccc(N)cc2)cc1 | – | inconclusive: 7.97%
COc1ccc(C(c2c(O)ccc3ccccc23)N2CCOCC2)c(OC)c1 (stereo not drawn) | – | inconclusive: 16%
CCOc1ccc(CN2CCN(Cc3cccc4c3OCO4)CC2CCO)cc1 (stereo not drawn) | – | inactive: 6.92%
CCOc1ccc(-c2nnn(CC(=O)NCc3cccs3)n2)cc1 | – | inconclusive: 0.241%
CN(CCCC(=O)NCc1ccccc1)S(=O)(=O)c1ccc([N+](=O)[O-])cc1 | – | inconclusive: 9.83%
CN(Cc1ccccc1)C(=O)c1ccco1 | – | inactive: -4.84%
CCOc1ccc(/C=C2/Sc3ccc(C(=O)N4CCN(C(=O)c5ccco5)CC4)cc3N(C)C2=O)cc1OC | inconclusive: 35.5 µM [falling, single point] | –

SMILES | Potency | activity change, negative = inhibition
CC(Oc1ccc(Cl)cc1Cl)c1nc(-c2ccc(NC(=O)c3cccnc3)cc2)no1 (stereo not drawn) | – | inactive: -2.66%
COCCn1c(=S)[nH]c2cc(C(=O)N3CCCC(C)C3)ccc2c1=O (stereo not drawn) | – | inconclusive: 9.94%
O=C(CN1C(=O)COc2ccccc21)N(Cc1cccnc1)Cc1ccccc1F | – | inconclusive: -0.424%
O=C(Nc1ccc(N2CCCCC2)cc1)c1cncc(Br)c1 | – | inconclusive: 0.765%
C(=N\N=C\c1cccs1)/c1cccs1 | – | inconclusive: -1.52%
COc1cc(S(=O)(=O)Nc2cc(C)cc(C)c2)ccc1F | – | inconclusive: -12.2%
O=C(COC(=O)c1ccc(Cl)cc1Cl)Nc1cccc(S(=O)(=O)NC2=NCCC2)c1 | inconclusive: 29.1 µM [falling, partial curve, poor fit] | –
CN(C)CCNc1ncnc2c1sc1nc(N3CCOCC3)c3c(c12)CC(C)(C)SC3 | – | inactive: -1.18%
Cc1cccc(NC(=O)c2cc3n(n2)C(C(F)(F)F)CC(C2CC2)N3)c1C (stereo not drawn) | – | inconclusive: -6.27%
Cc1ccccc1OCCCCCNCCO | – | inactive: 4.28%
CCCNc1nc(Nc2ccc(C)c(Cl)c2)c2cnn(C)c2n1 | – | inconclusive: 5.51%
COc1cc(/C=C/c2cc[n+](C)cc2)ccc1OCC(=O)Nc1ccccc1 | – | inactive: 8.04%
CCc1ccc(Sc2cc(C(=O)NC(C)CC)c3ccccc3n2)cc1 (stereo not drawn) | – | inactive: 1.91%
CCOC(=O)c1ccccc1NC1c2ccccc2C(=O)N1c1ccc(C)cn1 (stereo not drawn) | – | inconclusive: 13.9%
CC(=O)c1ccc(OCC(O)CN2CCN(S(=O)(=O)c3c(C)cc(C)cc3C)CC2)cc1 (stereo not drawn) | – | inconclusive: -2.63%
COc1cccc(NC(=O)c2cnn(-c3ccccc3)c2-n2cccc2)c1 | – | inconclusive: 12.8%
Cc1cc(OCC(=O)Nc2ccncc2)ccc1Br | – | inactive: -8.47%
Cc1ccc(-n2[nH]c(C)c(/C=N/NC(=O)c3cccc([N+](=O)[O-])c3)c2=O)cc1C | – | inconclusive: -11.8%
COc1ccccc1C(=O)NNC(=O)c1cccc([N+](=O)[O-])c1 | – | inconclusive: -15.6%
COc1ccccc1NC(=O)CSc1ccc2nnc(-c3cccnc3)n2n1 | inconclusive: 14.6 µM [falling, partial curve, poor fit] | –
Cc1cc(OCC(=O)Nc2ccc(Br)cc2)cc2c1C(=O)CC(C)(C)O2 | inconclusive: 28.2 µM [falling, partial curve, poor fit] | –

Arranged by molar mass (high to low): 5 of the compounds above
SMILES | Potency | activity change, negative = inhibition
Cc1cc(OCC(=O)Nc2ccc(Br)cc2)cc2c1C(=O)CC(C)(C)O2 | inconclusive: 28.2 µM [falling, partial curve, poor fit] | –
CN(CCCC(=O)NCc1ccccc1)S(=O)(=O)c1ccc([N+](=O)[O-])cc1 | – | inconclusive: 9.83%
CCc1ccc(Sc2cc(C(=O)NC(C)CC)c3ccccc3n2)cc1 (stereo not drawn) | – | inactive: 1.91%
CC(C)(C)C(=O)NC(=S)Nc1sc2c(c1C(N)=O)CCC2 | inconclusive: 5.01 µM [rising, full curve, poor fit] | –
S=c1[nH]nc(-c2cc3c(s2)-c2ccccc2CC3)o1 | inconclusive: 18.4 µM [falling, single point] | –

(further entries)

SMILES | Potency | activity change, negative = inhibition
COC(=O)c1ccc(NC(=O)c2sc3nc(-c4ccccc4)cn3c2C)cc1 | inconclusive: 11.2 µM [falling, single point] | –
O=C(Cc1c(O)c2ccccc2[nH]c1=O)NCc1cccc(F)c1 | – | inconclusive: 0.759%
COC(=O)C1=NNC2(C)C(=O)N(c3ccc(C)cc3)C(=O)C12 (stereo not drawn) | – | inactive: -10.9%
CC(C)(C)NC(=O)CSc1nc2scc(-c3ccccc3)c2c(=O)[nH]1 | – | inactive: 7.67%
CC(C)(C)c1nc(SCC(=O)NNC(=O)c2ccccc2)c2ccccc2n1 | – | inactive: -29%
CSc1nnc2c3ccccc3c3ccccc3c2n1 | – | inconclusive: -20%
COc1ccc(CCNC(=O)c2ccc(CS(=O)(=O)Cc3cccc(C)c3)o2)cc1OC | – | inconclusive: 8.53%
Cc1ccc(N(C)S(=O)(=O)c2cccc(C(=O)Nc3ccc(C)cn3)c2)cc1 | – | inactive: 1.74%
O=C(NC1CCSc2ccccc21)c1c(F)cccc1Cl (stereo not drawn) | – | inconclusive: 0.0561%
CN1CCN(c2nc(-c3ccccc3)nc(-c3ccccc3)c2C#N)CC1 | – | inconclusive: 1.38%
Cc1nnc(OC(C)C)c2nn(-c3ccccc3F)c(C)c12 | – | inconclusive: 4.32%
CCCCCCSc1ccc([C@H]2N[C@@](Cc3ccccc3)(C(=O)OC)[C@H]3C(=O)N(C)C(=O)[C@@H]23)cc1OC | – | inconclusive: 15.2%
COc1cc(C=C(c2nc3ccccc3s2)c2nc3ccccc3s2)ccc1O | inconclusive: 20.6 µM [falling, single point] | –
Cn1nc(-c2ccccc2)c(C(=O)Nc2ccc(C(F)(F)F)cc2)c1Cl | – | inactive: 5.51%
O=C(N/N=C/c1cc(Br)cs1)c1ccccc1[N+](=O)[O-] | inconclusive: 3.66 µM [falling, partial curve] | –
CCN(C(=O)CCN1C(=O)/C(=C/c2ccccc2)SC1=S)C1CCS(=O)(=O)C1 (stereo not drawn) | – | inconclusive: 0.478%
COC(=O)C1=C(C)N(Cc2ccco2)C(=O)/C1=C\c1ccc([N+](=O)[O-])cc1 | – | inactive: 11.1%
COc1ccc(C2NCCc3c2[nH]c2ccccc32)cc1CN1CCc2cc(OC)c(OC)cc2C1C (stereo not drawn) | inconclusive: 15.8 µM [falling, single point] | –
CC(=O)c1cc2c(cc1NC(=O)CSc1nc3ccc(C)cc3[nH]1)OCO2 | – | inconclusive: 6.43%
COc1ccc(OC)c(NC(=O)Cn2c(C)nc3ccccc3c2=O)c1 | inconclusive: 25.1 µM [falling, partial curve] | –
O=Cc1cn(CC(O)CN2CCCCC2)c2ccccc12 (stereo not drawn) | inconclusive: 17.8 µM [falling, partial curve, poor fit] | –

SMILES | Potency | activity change, negative = inhibition
CCC(C)Nc1nc(-c2ccccn2)nc2ccccc12 (stereo not drawn) | – | inconclusive: 0.99%
CCOC(=O)c1c(NC(=S)NC(=O)c2ccc(Cn3cc(Cl)cn3)o2)sc2c1CCCCC2 | – | inconclusive: 4.75%
S=C(NCCCCc1ccccc1)NCc1ccccc1 | – | inactive: -1.51%
O=[N+]([O-])c1cc(C(F)(F)F)ccc1NCCNC(=S)Nc1ccc(Cl)cc1 | – | inconclusive: -2.05%
COc1ccc(C2=NN(C(=O)c3cccs3)C(c3ccc(OC)cc3)C2)cc1 (stereo not drawn) | – | inconclusive: 17.5%
COc1cc(C(=O)NCc2ccc3c(c2)OCO3)c([N+](=O)[O-])cc1OC | – | inactive: 2.5%
Cc1ccc(NC(=O)c2cc(Cl)nc3ccccc23)cc1 | – | inactive: -14.5%
O=S(=O)(c1cc(F)ccc1F)N1CCN(c2ncnc3ccccc23)CC1 | inconclusive: 23.1 µM [cytotoxic, single point] | –
C=CCOC(=O)C1=C(C)NC(SCC(N)=O)=C(C#N)C1c1cccs1 (stereo not drawn) | – | inconclusive: -1.47%
CCNC(=S)NNC(=O)c1cc(C)on1 | – | inactive: -6.12%
c1ccc2c(c1)ccc1nnc(SCc3ccc4c(c3)OCO4)n12 | – | inconclusive: 1.64%
C/C(=C\c1ccc(Br)cc1)C(=O)c1c(C)cc(C)[nH]c1=O | – | inconclusive: -15.5%
CC(C)Cn1c(N)c(C(=O)COC(=O)c2ccc(Br)cc2)c(=O)n(C)c1=O | – | inconclusive: 2.79%
N#CC1=C(N)NC(SCC(=O)c2ccc(Cl)cc2)=C(C#N)C12CCCC2 | – | inconclusive: 11.5%
COCCSc1nnc(NC(=O)COc2ccc3c(c2)OCO3)s1 | inconclusive: 11.2 µM [falling, partial curve, poor fit] | –
CCCC(=O)NCc1ccc2c(c1)cc(C)n2C | – | inactive: 13.9%
CCS(=O)(=O)c1ccc(O)c(NC(=O)COc2ccc(Cl)cc2)c1 | – | inconclusive: -8.4%
CCc1ccc(NC(=O)N2CCc3ccccc3C2)cc1 | – | inconclusive: 4.03%
CN(C)c1ccc(CC2C(=O)Nc3ccccc32)cc1 (stereo not drawn) | – | inconclusive: -15.7%
O=C(N[C@H]1/C=C\[C@@H](O)CCCC1)OCc1ccccc1 | – | inconclusive: -1.58%
